Source: PubChem BioAssay AID1159578 (Peter MacCallum Cancer Centre, 2015)
Screen: 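Genome-wide hunt for genes controlling movement of lymphatic endothelial cells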 (primary screen). Cells: human lymphatic endothelial cells. Reagent: siRNA pool against human genes, 40 nM. Duration: 48 h after transfection. Detection: 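Cells stained with dye and imaged after a scratch; covered wound area and nuclei counted, duplicates averaged, migration set against mock wells and turned into a robust z-score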. Reading the numbers: migration robust z-score: higher = faster migration into the scratch; nuclei per well: higher = more cells in the well. Hit rule: 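Migration changed when robust z exceeds 2 or falls below -2 and mean nuclei number is at least 3300; otherwise not called changed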. Calls: active = migration changed; inactive = no migration change, or too few cells.
This is a random part of about 18,000 reagents tested. About 1,030 of all reagents (5.7%) were called active. 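Inactive calls also include pools with fewer than 3300 nuclei, whose migration was not assessed.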 Raw values vary from plate to plate and are shown uncorrected. Further read-outs or replicates are left out here. Reagent sequences are not shown.

{"Target gene": "PSMD6 (GeneID 9861)", "migration robust z-score": -1.57, "migration class with cell-count check": "migration z between -2 and 2; enough cells", "nuclei per well, duplicate mean": 4805, "call": "inactive"}
{"Target gene": "PSMD2 (GeneID 5708)", "migration robust z-score": -0.26, "migration class with cell-count check": "migration z between -2 and 2; enough cells", "nuclei per well, duplicate mean": 4388, "call": "inactive"}
{"Target gene": "RBM23 (GeneID 55147)", "migration robust z-score": 1.04, "migration class with cell-count check": "migration z between -2 and 2; enough cells", "nuclei per well, duplicate mean": 7266, "call": "inactive"}
{"Target gene": "TMEM86A (GeneID 144110)", "migration robust z-score": -0.16, "migration class with cell-count check": "migration z between -2 and 2; enough cells", "nuclei per well, duplicate mean": 6748, "call": "inactive"}
{"Target gene": "SARM1 (GeneID 23098)", "migration robust z-score": -2.67, "migration class with cell-count check": "under 3300 nuclei; migration not judged", "nuclei per well, duplicate mean": 2896, "call": "inactive"}
{"Target gene": "FKBPL (GeneID 63943)", "migration robust z-score": 1.5, "migration class with cell-count check": "migration z between -2 and 2; enough cells", "nuclei per well, duplicate mean": 6064, "call": "inactive"}
{"Target gene": "SLC22A1 (GeneID 6580)", "migration robust z-score": 0, "migration class with cell-count check": "migration z between -2 and 2; enough cells", "nuclei per well, duplicate mean": 4585, "call": "inactive"}
{"Target gene": "CALML4 (GeneID 91860)", "migration robust z-score": 1.04, "migration class with cell-count check": "migration z between -2 and 2; enough cells", "nuclei per well, duplicate mean": 6864, "call": "inactive"}
{"Target gene": "LNX2 (GeneID 222484)", "migration robust z-score": 0.75, "migration class with cell-count check": "migration z between -2 and 2; enough cells", "nuclei per well, duplicate mean": 6590, "call": "inactive"}
{"Target gene": "UPF3A (GeneID 65110)", "migration robust z-score": 2.67, "migration class with cell-count check": "migration z above 2; enough cells", "nuclei per well, duplicate mean": 6618, "call": "active"}
{"Target gene": "HEBP2 (GeneID 23593)", "migration robust z-score": -0.26, "migration class with cell-count check": "migration z between -2 and 2; enough cells", "nuclei per well, duplicate mean": 5706, "call": "inactive"}
{"Target gene": "RCVRN (GeneID 5957)", "migration robust z-score": 0.32, "migration class with cell-count check": "migration z between -2 and 2; enough cells", "nuclei per well, duplicate mean": 6586, "call": "inactive"}
{"Target gene": "SUSD1 (GeneID 64420)", "migration robust z-score": 0.38, "migration class with cell-count check": "migration z between -2 and 2; enough cells", "nuclei per well, duplicate mean": 3906, "call": "inactive"}
{"Target gene": "RPL35 (GeneID 11224)", "migration robust z-score": -1.73, "migration class with cell-count check": "migration z between -2 and 2; enough cells", "nuclei per well, duplicate mean": 4428, "call": "inactive"}
{"Target gene": "PCDHGA9 (GeneID 56107)", "migration robust z-score": -0.74, "migration class with cell-count check": "migration z between -2 and 2; enough cells", "nuclei per well, duplicate mean": 4806, "call": "inactive"}
{"Target gene": "SPEF2 (GeneID 79925)", "migration robust z-score": 0.72, "migration class with cell-count check": "migration z between -2 and 2; enough cells", "nuclei per well, duplicate mean": 5508, "call": "inactive"}
{"Target gene": "OXR1 (GeneID 55074)", "migration robust z-score": 0.24, "migration class with cell-count check": "migration z between -2 and 2; enough cells", "nuclei per well, duplicate mean": 6584, "call": "inactive"}
{"Target gene": "ANGPTL6 (GeneID 83854)", "migration robust z-score": -0.55, "migration class with cell-count check": "migration z between -2 and 2; enough cells", "nuclei per well, duplicate mean": 6474, "call": "inactive"}
{"Target gene": "OR9Q1 (GeneID 219956)", "migration robust z-score": 0.12, "migration class with cell-count check": "migration z between -2 and 2; enough cells", "nuclei per well, duplicate mean": 5832, "call": "inactive"}
{"Target gene": "BCL9 (GeneID 607)", "migration robust z-score": 1.01, "migration class with cell-count check": "migration z between -2 and 2; enough cells", "nuclei per well, duplicate mean": 6262, "call": "inactive"}
{"Target gene": "STXBP5 (GeneID 134957)", "migration robust z-score": 0.14, "migration class with cell-count check": "migration z between -2 and 2; enough cells", "nuclei per well, duplicate mean": 5880, "call": "inactive"}

2 entries from above, sorted by “nuclei per well, duplicate mean”, ascending.
{"Target gene": "PCDHGA9 (GeneID 56107)", "migration robust z-score": -0.74, "migration class with cell-count check": "migration z between -2 and 2; enough cells", "nuclei per well, duplicate mean": 4806, "call": "inactive"}
{"Target gene": "SPEF2 (GeneID 79925)", "migration robust z-score": 0.72, "migration class with cell-count check": "migration z between -2 and 2; enough cells", "nuclei per well, duplicate mean": 5508, "call": "inactive"}
